Laboratory results from publication PMC10801318.

T1: YOD1, endogenous (UniProt Q32Q05)
T1 sequence: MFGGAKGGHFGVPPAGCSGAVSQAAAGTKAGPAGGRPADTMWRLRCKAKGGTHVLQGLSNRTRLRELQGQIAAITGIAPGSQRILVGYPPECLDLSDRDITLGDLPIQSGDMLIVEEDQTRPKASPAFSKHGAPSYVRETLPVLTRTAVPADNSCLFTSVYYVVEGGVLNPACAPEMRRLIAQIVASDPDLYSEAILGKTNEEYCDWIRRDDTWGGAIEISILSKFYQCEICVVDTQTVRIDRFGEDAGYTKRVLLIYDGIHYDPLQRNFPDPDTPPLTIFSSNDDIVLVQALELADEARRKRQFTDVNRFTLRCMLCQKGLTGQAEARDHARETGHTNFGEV

B1: YOD1, endogenous (protein, UniProt Q32Q05 1-343)
chain: T1 sequence

Key:
[1] = target: T1, YOD1, endogenous; assay: co-IP; endogenous IP from cell lysates (RIPA lysis buffer with protease inhibitors) with antibodies against TRIM54 or YOD1, or IgG, overnight at 4 °C; protein A/G beads 6 h at 4 °C; washed with RIPA three times; Western blot
[2] = target: TRIM54 (tripartite motif containing 54), endogenous; assay: as above

Molecule | binding [1] | binding [2]
TRIM54 (tripartite motif containing 54), endogenous | binds | 
B1 |  | binds

Results are given in words; binding and its absence hold for the method and conditions named. Binding seen in cells or lysates may run through a third protein. Binding calls can cover weak binding; strength is not graded here.
